Data on 15 compounds can be found in the supplement of paper PMC12009310.

Where a name gives a salt, the structure may show the parent alone. ± gives the standard deviation of the averaged measurements. The list shows a part of the results. Baselines shift from plate to plate; read single values as rough.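 The cells are a mouse kidney inner medullary collecting duct line, silenced either for the ciliary gene Rpgrip1l or with a non-targeting control siRNA.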

The experiment has as its system mIMCD3. Description: robust z score of cell number vs plate controls; higher = more cells (less cytotoxic). Particulars: 10 µM; 48 h; siRNA: siRpgrip1l.
Take `COC(=O)[C@H](NC(=O)c1cc(-c2ccccc2)nc2ccccc12)c1ccccc1`: the “robust z score of cell number” value was -34.7 ± 30.

`CCN1CCC[C@H]1CNC(=O)c1cc(S(N)(=O)=O)ccc1OC` [(S)-(-)-Sulpiride]: the “robust z score of cell number” value is -1.44 ± 0.6.

With `CC(=N)NCc1cccc(CN)c1` [1400W dihydrochloride], the “robust z score of cell number” value is -5.28 ± 14.

Consider `O=C(O)/C=C/c1ccc(Cn2ccnc2)cc1` [Ozagrel hydrochloride], for which the “robust z score of cell number” value is -4.62 ± 6.4.

Take `CN(C)CCCSc1ccccc1NC(=O)/C=C/c1ccccc1` [Cinanserin hydrochloride]: the “robust z score of cell number” value is -36.4 ± 28.

As to `c1ccc(N2CCN(CCCOc3ccc4c(c3)OCO4)CC2)cc1` [BP 554 maleate], the “robust z score of cell number” value was -13 ± 6.6.

Consider `OC(c1ccccc1)C1CCN(CCc2ccccc2)CC1` (stereo not given), for which the “robust z score of cell number” value was -8.54 ± 3.3.

`COCCOC(=O)C1=C(C)NC(C)=C(C(=O)OC(C)C)C1c1cccc([N+](=O)[O-])c1` (stereo not given) [Nimodipine]: the “robust z score of cell number” value is -11 ± 9.3.

In the case of `CC(=O)N[C@@H](Cc1c[nH]c2ccccc12)C(=O)OCc1cc(C(F)(F)F)cc(C(F)(F)F)c1`, the “robust z score of cell number” value was -1.8 ± 4.9.

Take `CCc1c2c(nc3ccc(O)cc13)-c1cc3c(c(=O)n1C2)COC(=O)[C@]3(O)CC`: the “robust z score of cell number” value is -31.1 ± 29.

For `COCCCC/C(=N\OCCN)c1ccc(C(F)(F)F)cc1` [Fluvoxamine maleate], the “robust z score of cell number” value is -14.5 ± 7.9.

Regarding `Cn1cc(C2=C(c3ccc(Cl)cc3Cl)C(=O)NC2=O)c2ccccc21`, the “robust z score of cell number” value is -39.9 ± 40.

Consider `Oc1cc2c(cc1O)CN(C(=S)NCCc1ccc(Cl)cc1)CCC2` [Capsazepine], for which the “robust z score of cell number” value was -126 ± 100.

`NS(=O)(=O)c1cccc2c1c([N+](=O)[O-])cc1nc(O)c(O)nc12`: the “robust z score of cell number” value is -49.4 ± 78.

Regarding `Clc1ccccc1CNCC1CCC(CNCc2ccccc2Cl)CC1` (stereo not given), the “robust z score of cell number” value was -194 ± 220.
